## Library screen at single concentrations

The chains behind the UniProt entries cited, without tags or fusion partners. Residues count along the entry.
UniProt Q4DA54, 1-478: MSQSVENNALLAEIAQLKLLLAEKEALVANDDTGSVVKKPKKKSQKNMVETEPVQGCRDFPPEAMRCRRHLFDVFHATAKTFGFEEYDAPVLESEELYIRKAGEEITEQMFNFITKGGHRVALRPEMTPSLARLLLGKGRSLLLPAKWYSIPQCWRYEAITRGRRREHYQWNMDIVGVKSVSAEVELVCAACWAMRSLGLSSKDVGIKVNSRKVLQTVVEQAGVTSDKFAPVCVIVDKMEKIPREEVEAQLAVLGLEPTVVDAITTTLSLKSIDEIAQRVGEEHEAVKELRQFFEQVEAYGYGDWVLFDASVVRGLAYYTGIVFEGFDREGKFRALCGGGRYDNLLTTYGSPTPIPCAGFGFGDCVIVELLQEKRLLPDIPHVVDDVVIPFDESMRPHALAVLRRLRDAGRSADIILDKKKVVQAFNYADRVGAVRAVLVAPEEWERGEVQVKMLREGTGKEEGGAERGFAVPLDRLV
UniProt P9WPC5, whole entry: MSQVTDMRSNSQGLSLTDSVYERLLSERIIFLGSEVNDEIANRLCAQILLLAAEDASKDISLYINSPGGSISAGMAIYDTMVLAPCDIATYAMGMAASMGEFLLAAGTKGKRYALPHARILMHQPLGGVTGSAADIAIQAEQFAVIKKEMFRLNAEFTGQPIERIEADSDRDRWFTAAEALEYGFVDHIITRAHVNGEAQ
UniProt P9WPC3, whole entry partner: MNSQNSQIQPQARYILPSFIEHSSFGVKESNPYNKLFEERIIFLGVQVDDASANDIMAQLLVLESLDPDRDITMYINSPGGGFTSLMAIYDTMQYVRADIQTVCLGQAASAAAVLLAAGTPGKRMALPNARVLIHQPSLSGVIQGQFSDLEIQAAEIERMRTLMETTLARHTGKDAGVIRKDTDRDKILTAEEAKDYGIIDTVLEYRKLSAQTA
UniProt Q8IDJ8, 1-583: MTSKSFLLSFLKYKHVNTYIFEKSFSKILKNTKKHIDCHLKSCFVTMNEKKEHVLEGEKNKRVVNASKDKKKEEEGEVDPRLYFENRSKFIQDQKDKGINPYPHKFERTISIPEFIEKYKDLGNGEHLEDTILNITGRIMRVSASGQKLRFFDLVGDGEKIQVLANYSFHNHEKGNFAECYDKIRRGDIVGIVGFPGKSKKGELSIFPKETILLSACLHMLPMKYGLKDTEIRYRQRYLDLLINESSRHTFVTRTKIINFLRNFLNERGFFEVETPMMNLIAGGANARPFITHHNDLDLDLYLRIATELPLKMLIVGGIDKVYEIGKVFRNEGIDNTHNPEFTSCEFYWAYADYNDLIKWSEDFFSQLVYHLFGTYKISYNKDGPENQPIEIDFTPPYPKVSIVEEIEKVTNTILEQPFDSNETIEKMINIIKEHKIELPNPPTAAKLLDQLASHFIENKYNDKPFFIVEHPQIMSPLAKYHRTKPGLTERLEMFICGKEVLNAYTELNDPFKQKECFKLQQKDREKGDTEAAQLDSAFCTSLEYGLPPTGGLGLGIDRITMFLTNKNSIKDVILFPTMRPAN

Measurements from “University of Dundee, Small-Polar-MMV Screening Library” (2021), ChEMBL document CHEMBL3988442.

Leishmania in macrophages: 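Cell assay of Leishmania donovani living inside macrophages; the read-out is not stated. Compounds at 30 µM. Direction is inferred from retests: higher values go with stronger inhibition. Size under these conditions: about 69,000 compounds, about 1,000 of them at 50% or above in at least one test.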
TcHisRS: 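Enzyme assay of histidyl-tRNA synthetase; the read-out is not stated. Target: Histidine-tRNA ligase, Trypanosoma cruzi CL Brener (UniProt Q4DA54). Tested at 30 µM. The record gives no direction; compounds that gave an IC50 in retests scored well above the rest, so higher reads as stronger inhibition. About 69,000 compounds were tested under these conditions; 0.045% (about 31) showed 50% or more at least once.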
ClpP1P2: 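ClpP1P2, Mycobacterium tuberculosis (UniProt P9WPC5 and UniProt P9WPC3). Protease assay of ClpP1P2, read by the AMC dye that it sets free. Concentration: 50 µM. Higher reads as stronger inhibition, judged from the few compounds that gave an IC50. Most other retested compounds had strongly negative values. Size under these conditions: about 69,000 compounds, about 10 of them at 50% or above in at least one test.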
Toxoplasma: 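Assay of Toxoplasma gondii numbers, read through their beta-galactosidase reporter with a colour substrate. Compounds at 10 µM. Higher reads as fewer parasites (inferred from which compounds were picked for retests). Size under these conditions: about 67,000 compounds, about 260 of them at 50% or above in at least one test.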
PfKRS1: 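Enzyme assay of the cytosolic lysyl-tRNA synthetase in 384-well plates, read by luminescence. Target: Lysine-tRNA ligase, Plasmodium falciparum 3D7 (UniProt Q8IDJ8). Concentration: 30 µM. Direction is inferred from only a few compounds that gave an IC50; most scored high, so higher reads as stronger inhibition. Size under these conditions: about 69,000 compounds, about 49 of them at 50% or above in at least one test.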

Values are the deposited “Percent Effect”, in %. The controls that fix the scale are not given in the record; negative values are as filed. This is an unselected part of the compounds tested. Two or more numbers in one place are separate tests of the same structure; such repeats can differ widely. A dash means the value is not listed here; it may have been measured.

With CC(C)N1CCC(CNC(=O)COc2ccc(F)cc2F)C1 (stereo not shown) the screen gave Leishmania in macrophages: 11.1%; TcHisRS: 13.25%; ClpP1P2: -4.961%; Toxoplasma: -3.79%; PfKRS1: 5.357%.
With CC(C)c1cc(NC(=O)CN2CCC(N3CCNC3=O)CC2)on1 the screen gave Leishmania in macrophages: -17.91%; TcHisRS: 4.943%; ClpP1P2: -4.365%; Toxoplasma: 1.78%; PfKRS1: -0.01261%.
With Cc1ccccc1CN1CCC(CNC(=O)Cn2cncn2)CC1 the screen gave Leishmania in macrophages: 17.43%; TcHisRS: 1.205%; ClpP1P2: 5.857%; Toxoplasma: -14.64%; PfKRS1: 2.206%.
With O=S(=O)(c1cccs1)N1CC[C@@H](O)[C@@H]1Cc1ccncc1 the screen gave TcHisRS: -0.9852%; ClpP1P2: -5.922%; PfKRS1: -2.647%.
With CNC(=O)C1CN(Cc2cc(C)on2)CCN(C2CCOCC2)C1 (stereo not shown) the screen gave Leishmania in macrophages: -11.52%; TcHisRS: 1.55%; ClpP1P2: -12.21%; Toxoplasma: 5.07%; PfKRS1: -0.3004%.
With [H][C@]12CC[C@]([H])(CN(Cc3c(C)noc3C)C1)N(Cc1cc(F)cc(F)c1)C2 the screen gave Leishmania in macrophages: 17.17%; Toxoplasma: 20.21%.
With O=C(NCCCNc1cccnc1)c1ccc2nccn2c1 the screen gave Leishmania in macrophages: 14.22%; TcHisRS: 4.242%; ClpP1P2: -7.62%; Toxoplasma: -33.41%; PfKRS1: -0.8339%.
With O=C(Nc1cccnc1)C1=Cc2ccccc2OC1 the screen gave Leishmania in macrophages: 14.67%; TcHisRS: 15.69%; ClpP1P2: 14.01%; Toxoplasma: 2.596%; PfKRS1: 0.6951%.
With CN1CCO[C@@H]2CN(S(=O)(=O)c3ccccc3)C[C@@H]2C1 the screen gave TcHisRS: -0.5587%; ClpP1P2: -8.881%; PfKRS1: 0.5458%.
With C[C@@H]1CN(C2CCOCC2)C[C@]12CCN(c1cccnc1)C2=O the screen gave TcHisRS: 0%; ClpP1P2: -1.628%; PfKRS1: 0.2171%.
With CC(C)Nc1nc(-c2ccccc2)nc2c1CCN(C(=O)CC#N)CC2 the screen gave Leishmania in macrophages: 35.67%; TcHisRS: 13.76%; ClpP1P2: -1.528%; Toxoplasma: -6.276%; PfKRS1: 4.515%.
With CN(C)C(CNc1c(NCc2ccco2)c(=O)c1=O)c1ccccc1 (stereo not shown) the screen gave Leishmania in macrophages: -8.127%; TcHisRS: 3%; ClpP1P2: -2.585%; Toxoplasma: -3.114%; PfKRS1: 2.044%.
With O=C(c1ccccc1OC1CCCC1)N1CCCC(n2cncn2)C1 (stereo not shown) the screen gave Leishmania in macrophages: 29.66%; TcHisRS: 4.298%; ClpP1P2: 7.094%; Toxoplasma: -1.329%; PfKRS1: -0.8541%.
With COc1ccc(CN2CCOC3(CCCN(C(C)=O)C3)C2)cc1 (stereo not shown) the screen gave TcHisRS: 8.824%; ClpP1P2: -14.99%; PfKRS1: 7.63%.
With COc1ccc(CN2CCC3(CC2)NC(=O)CC3c2cnn(C)c2)cc1 (stereo not shown) the screen gave TcHisRS: 4.132%; ClpP1P2: 12.88%; PfKRS1: 3.813%.
With O=C(O)C(F)(F)F.[H][C@]12CCC[C@@]1(COCC1CCOCC1)CN(Cc1cc(C)on1)C2 the screen gave Leishmania in macrophages: 26.3% & -2.905%; Toxoplasma: 18.2%.
With COc1c(CNCc2ccc3c(c2)OCCO3)c(C(C)C)nn1C the screen gave Leishmania in macrophages: -2.541%; TcHisRS: 4.624%; ClpP1P2: -14.19%; Toxoplasma: 1.553%; PfKRS1: 1.879%.
With Cc1cnn(C2CCCN(C(=O)c3ccc(-n4cnnn4)cc3)C2)c1 (stereo not shown) the screen gave Leishmania in macrophages: 13.31%; TcHisRS: 4.985%; ClpP1P2: -15.94%; Toxoplasma: -32.86%; PfKRS1: -0.676%.
With COCCc1noc(CN(C)C(=O)C(C)N2CCc3ccccc3C2)n1 (stereo not shown) the screen gave Leishmania in macrophages: 25.82%; TcHisRS: 5.941%; ClpP1P2: 6.619%; Toxoplasma: 12.09%; PfKRS1: 1.945%.
With Cc1nc(CN2CCOC(CN(C)c3cccnn3)C2)cs1 (stereo not shown) the screen gave Leishmania in macrophages: 20.69%; TcHisRS: 3.396%; ClpP1P2: 4.86%; Toxoplasma: -2.658%; PfKRS1: 2.364%.
With Cc1ccnc(OC[C@@]23CCO[C@@H]2CCN(S(C)(=O)=O)C3)n1 the screen gave TcHisRS: 3.448%; ClpP1P2: 0.004061%; PfKRS1: -0.1141%.
With Cc1cc(NC(=O)N(CCC#N)CCCN(C)C)ccc1F the screen gave Leishmania in macrophages: 13.46%; TcHisRS: 4.598%; ClpP1P2: 0.1023%; Toxoplasma: -11.91%; PfKRS1: 3.382%.

2 of the entries, repeated:

| Compound | Leishmania in macrophages | TcHisRS | ClpP1P2 | Toxoplasma | PfKRS1 |
|---|---|---|---|---|---|
| `CC(C)c1cc(NC(=O)CN2CCC(N3CCNC3=O)CC2)on1` | -17.91 | 4.943 | -4.365 | 1.78 | -0.01261 |
| `C[C@@H]1CN(C2CCOCC2)C[C@]12CCN(c1cccnc1)C2=O` | - | 0 | -1.628 | - | 0.2171 |